# No constants are given. Whether binding was seen depends on the method and setting. Binding seen in cells or lysates may run through a third protein. Here binding means that the protein was enriched with, or labelled near, the bait; the list need not be complete.
# Amino acid sequences for entries named in this document (tags omitted).
# UniProt P46934: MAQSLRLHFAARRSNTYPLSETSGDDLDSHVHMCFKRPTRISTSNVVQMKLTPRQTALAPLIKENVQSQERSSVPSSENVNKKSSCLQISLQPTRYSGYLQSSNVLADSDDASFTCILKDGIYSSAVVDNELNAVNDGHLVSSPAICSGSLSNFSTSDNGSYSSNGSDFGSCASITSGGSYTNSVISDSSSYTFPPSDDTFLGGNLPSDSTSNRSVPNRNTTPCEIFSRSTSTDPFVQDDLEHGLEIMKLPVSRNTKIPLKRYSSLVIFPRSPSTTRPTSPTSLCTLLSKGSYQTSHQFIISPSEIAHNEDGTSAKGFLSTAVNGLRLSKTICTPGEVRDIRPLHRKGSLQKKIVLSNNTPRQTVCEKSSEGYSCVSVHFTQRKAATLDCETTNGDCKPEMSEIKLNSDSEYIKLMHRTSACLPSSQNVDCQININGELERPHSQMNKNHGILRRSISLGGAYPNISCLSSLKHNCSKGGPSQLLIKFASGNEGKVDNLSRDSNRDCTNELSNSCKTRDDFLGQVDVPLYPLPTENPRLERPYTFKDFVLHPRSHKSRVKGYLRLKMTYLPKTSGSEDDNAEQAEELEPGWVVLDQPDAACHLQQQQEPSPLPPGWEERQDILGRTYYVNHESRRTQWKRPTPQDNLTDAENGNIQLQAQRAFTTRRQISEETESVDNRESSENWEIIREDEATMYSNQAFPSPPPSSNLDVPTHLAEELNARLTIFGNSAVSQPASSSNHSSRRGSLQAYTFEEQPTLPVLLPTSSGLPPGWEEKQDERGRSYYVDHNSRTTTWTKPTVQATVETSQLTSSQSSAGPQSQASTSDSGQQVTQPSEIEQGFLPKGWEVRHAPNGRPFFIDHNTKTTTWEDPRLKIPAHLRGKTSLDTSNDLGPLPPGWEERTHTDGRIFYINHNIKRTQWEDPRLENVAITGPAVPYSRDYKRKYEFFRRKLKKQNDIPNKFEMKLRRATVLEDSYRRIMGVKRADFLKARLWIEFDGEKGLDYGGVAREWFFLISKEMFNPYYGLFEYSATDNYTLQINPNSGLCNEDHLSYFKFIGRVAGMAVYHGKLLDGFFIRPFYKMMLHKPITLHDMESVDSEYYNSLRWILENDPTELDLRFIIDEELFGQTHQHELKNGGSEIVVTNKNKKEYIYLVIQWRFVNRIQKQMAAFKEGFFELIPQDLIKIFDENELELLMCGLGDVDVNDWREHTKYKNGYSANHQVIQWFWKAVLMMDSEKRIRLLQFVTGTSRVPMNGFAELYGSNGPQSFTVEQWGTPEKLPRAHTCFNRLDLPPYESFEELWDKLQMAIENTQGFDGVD
# UniProt P98170: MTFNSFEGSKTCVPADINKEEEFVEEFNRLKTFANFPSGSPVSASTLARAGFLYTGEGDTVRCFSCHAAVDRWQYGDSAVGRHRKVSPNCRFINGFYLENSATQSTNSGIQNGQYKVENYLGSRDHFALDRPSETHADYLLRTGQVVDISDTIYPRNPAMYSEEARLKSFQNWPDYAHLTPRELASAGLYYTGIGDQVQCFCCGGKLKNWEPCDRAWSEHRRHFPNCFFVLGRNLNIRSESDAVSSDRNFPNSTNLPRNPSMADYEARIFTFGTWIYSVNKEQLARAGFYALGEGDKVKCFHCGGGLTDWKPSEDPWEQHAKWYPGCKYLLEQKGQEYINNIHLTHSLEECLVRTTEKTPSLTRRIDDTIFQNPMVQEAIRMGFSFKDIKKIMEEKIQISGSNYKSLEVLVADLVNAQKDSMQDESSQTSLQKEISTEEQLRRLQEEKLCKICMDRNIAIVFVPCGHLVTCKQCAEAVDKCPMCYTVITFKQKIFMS
# Target: T1, Trx(C35S), thioredoxin trap mutant (human) (UniProt P10599)
# T1 sequence: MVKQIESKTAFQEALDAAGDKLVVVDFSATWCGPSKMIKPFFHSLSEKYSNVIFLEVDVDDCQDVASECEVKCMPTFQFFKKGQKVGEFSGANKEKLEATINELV
# Experiment: affinity purification with mass spectrometry; Trx(C35S) (50 ug, scaled up 4-fold for proteomics) loaded on streptavidin agarose beads, incubated 1 h at 4°C with digitonin lysates of A549 cells (treated with 500 uM CysNO for 10 min, or LPS/TNFα/IFN-γ/IL-1β for 72 h, or untreated); mixed-disulfide trapping quenched with NEM; washes with 1 M NaCl and 1% Triton X-100; elution with 20 mM DTT; LC-MS/MS; only the target purified
row,binding,Substance
1,binds,"NEDD4, S-nitrosylated (from UniProt P46934 1-1319)"
2,binds,"XIAP, S-nitrosylated (from UniProt P98170 1-497)"

# Reference: publication PMC5230776
